Source: patent US20090054346A1, “ELASTIN PRODUCTION-ENHANCING AGENTS” (Rohto Pharmaceutical Co., Ltd., priority 2006, published 2009)
At least one peptide structure holds a part that was inferred or is arguable (an end, a ring closure or a residue). Peptide text beside a SMILES is read from it.

Test system: elastin gene expression in normal human skin-derived fibroblasts (CRL-1836)
Assay: Assay for the enhancement of elastin production in skin fibroblasts (elastin gene expression, real-time PCR)
Assay type: cell-based
Conditions: 1000 μg/ml peptide, serum-free medium, 72 hours

CC(C)C[C@H](N)C(=O)N[C@@H](CCC(=O)O)C(=O)N[C@@H](Cc1c[nH]cn1)C(=O)N[C@@H](C)C(=O)O [LEHA peptide, Leu-Glu-His-Ala] (H-LEHA-OH)
expression level of the elastin gene (control taken as 100%): 467%
